Laboratory results published in patent publication US9480758B2, “Diagnostic agents selective against metalloproteases” (BRACCO IMAGING S.P.A., priority 2008, dated 2016).
At least one structure is not confirmed: it was looked up by name or label, or the drawing left a doubt.

Tests used:
Experiment in all cases: MMP inhibition assay, fluorogenic substrate FS-6
Assay type in all cases: biochemical
MMP-2 = target: T1, MMP-2 (Homo sapiens, UniProt P08253); parameters: purchased supplied by Prof; Gillian Murphy (Department of Oncology, University of Cambridge, UK); host or cells: transfected mouse myeloma cells; conditions: activated pro-MMP-2 2.9 nM, inhibitor incubated 4 h at 25° C., substrate Mca-Lys-Pro-Leu-Gly-Leu-Dap(Dnp)-Ala-Arg-NH2 2 μM
T1 sequence (P08253 110-660): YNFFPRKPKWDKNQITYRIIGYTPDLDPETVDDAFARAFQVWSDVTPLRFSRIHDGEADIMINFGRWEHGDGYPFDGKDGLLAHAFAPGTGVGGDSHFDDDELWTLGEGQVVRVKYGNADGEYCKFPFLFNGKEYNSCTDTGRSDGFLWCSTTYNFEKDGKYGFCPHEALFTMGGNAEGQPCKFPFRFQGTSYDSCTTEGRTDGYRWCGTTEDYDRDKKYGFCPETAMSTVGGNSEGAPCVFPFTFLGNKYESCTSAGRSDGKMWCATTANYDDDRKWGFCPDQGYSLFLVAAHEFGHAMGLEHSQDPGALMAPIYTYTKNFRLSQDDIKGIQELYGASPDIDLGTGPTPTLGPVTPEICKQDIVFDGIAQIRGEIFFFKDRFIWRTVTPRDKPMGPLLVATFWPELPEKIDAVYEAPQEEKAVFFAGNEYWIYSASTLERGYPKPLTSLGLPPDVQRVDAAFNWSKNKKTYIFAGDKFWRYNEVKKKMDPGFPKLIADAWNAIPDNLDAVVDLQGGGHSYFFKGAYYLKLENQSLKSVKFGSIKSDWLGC
Method: (§1) As reported therein, the inhibitory activity of the compounds of the invention was evaluated on the known fluorogenic substrate (Mca-Lys-Pro-Leu-Gly-Leu-Dpa-Ala-Arg-NH2), shortly referred to as FS-6 (see, as a reference, U. Neumann, Analytical Biochem. 2004, 328, 166-173).
(§2) Recombinant human progelatinase A (pro-MMP-2) and B (pro-MMP-9) from transfected mouse myeloma cells, MMP-16 and MMP-14 catalytic domains were supplied by Prof. Gillian Murphy (Department of Oncology, University of Cambridge, UK). Pro-MMP-1, pro-MMP-8, pro-MMP-3 and pro-MMP-13 were purchased from Calbiochem, MMP-12 was furnished from RDSystems.
(§3) Pro-MMP-3 was activated with trypsin 5 μg/mL for 30 min at 37 C.° followed by soybean trypsin inhibitor (SBTI) 62 μg/mL.
(§4) For assay measurements, the inhibitor stock solutions (DMSO, 100 mM) were further diluted, at 7 different concentrations (0.01 nM-300 μM) for each MMP in the fluorimetric assay buffer (FAB: Tris 50 mM, pH=7.5, NaCl 150 mM, CaCl2 10 mM, Brij 35 0.05% and DMSO 1%). […] Percent of inhibition was calculated from control reactions without the inhibitor. IC50 was determined using the formula: Vi/Vo=1/(1+[I]/IC50), where Vi is the initial velocity of substrate cleavage in the presence of the inhibitor at concentration [I] and Vo is the initial velocity in the absence of the inhibitor. Results were analyzed using SoftMax Pro software and GraFit software.

MMP-13 = MMP-13 (Homo sapiens, UniProt P45452); conditions: MMP-13 0.3 nM, inhibitor incubated 4 h at 25° C., substrate Mca-Lys-Pro-Leu-Gly-Leu-Dap(Dnp)-Ala-Arg-NH2 2 μM
Method: as §1, §2, §3, §4

MMP-14 catalytic domain = target: T2, MMP-14 catalytic domain (Homo sapiens, UniProt P50281); conditions: MMP-14cd 1 nM, inhibitor incubated 4 h at 25° C., substrate Mca-Lys-Pro-Leu-Gly-Leu-Dap(Dnp)-Ala-Arg-NH2 2 μM
T2 construct: MMP-16 and MMP-14 catalytic domains were supplied by Prof; Gillian Murphy; purchased supplied by Prof; Gillian Murphy (Department of Oncology, University of Cambridge, UK)
Method: as §1, §2, §4

SMILES | IC50 (MMP-2) [nM] | IC50 (MMP-13) [nM] | IC50 (MMP-14 catalytic domain) [nM]
COc1ccc(-c2ccc(S(=O)(=O)N(OCCOCCN3CCN(C(=O)CCCCCN4/C(=C/C=C/C=C/C5=[N+](CCCCCC(=O)N6CCN(CCOCCON([C@H](CCNC(=O)OCc7ccccc7)C(=O)NO)S(=O)(=O)c7ccc(-c8ccc(OC)cc8)cc7)CC6)c6ccc7c(S(=O)(=O)[O-])cc(S(=O)(=O)O)cc7c6C5(C)C)C(C)(C)c5c4ccc4c(S(=O)(=O)O)cc(S(=O)(=O)O)cc54)CC3)[C@H](CCNC(=O)OCc3ccccc3)C(=O)NO)cc2)cc1 [Compound 7] | 0.93 ± 0.1 | 0.69 ± 0.036 | 177 ± 10
COc1ccc(-c2ccc(S(=O)(=O)N(OCCOCCN3CCN(C(=O)CC[C@@H](C(=O)O)N(CCN(CC(=O)O)CC(=O)O)CCN(CC(=O)O)CC(=O)O)CC3)[C@H](CCNC(=O)OCc3ccccc3)C(=O)NO)cc2)cc1 [Compound 21a] | 0.2 ± 0.03 | 0.085 ± 0.0057 | 3.98 ± 0.6
